In the supplement of paper PMC12578635 one finds intracellular bacterial bioluminescence data, which are given here for 87 compounds.

Structures are written as SMILES. The list shows a part of the results. Cut-off read from the data, not from the text of the source: active = 150% or more and inactive = the rest. Most values come without repeats; read them as rough.

This assay deals with Staphylococcus aureus JE2-lux inside RAW 264.7 macrophages. Description: intracellular bacterial bioluminescence relative to DMSO vehicle; higher = higher intracellular bacterial metabolic activity. The conditions noted are these: 10 µM; treatment time 4 h; gentamicin 50 µg/ml. Here is the method: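 RAW 264.7 macrophages infected with bioluminescent MRSA JE2-lux (MOI 100) were dispensed into 384-well plates with 10 µM compound in the presence of 50 µg/ml gentamicin. After 4 h at 37 °C, bacterial bioluminescence (a proxy for intracellular bacterial metabolic activity) and host cell viability (CellTiter-Fluor) were read and normalised to 0.1% DMSO vehicle controls. Single-pass screen of the UNC CICBDD kinase-targeted library (>4,700 compounds).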
Regarding `Cn1c(=O)n(CC(=O)N2CCCC2)c(=O)c2cc(S(=O)(=O)NCCC3=CCCCC3)ccc21`, the intracellular bacterial bioluminescence is inactive: 94.9%.

Turning to `O=C(Nc1ccc(F)cc1F)c1ccc(SCCN2CCOCC2)nc1`, the intracellular bacterial bioluminescence is inactive: 82.9%.

As to `O=C(Cc1ccccc1)Nc1nc(-c2nc3ccccc3s2)cs1`, the intracellular bacterial bioluminescence was inactive: 68.4%.

As to `Cc1ccc2nc(-c3ccc(F)cc3)nc(SCC(=O)N3CCOCC3)c2c1`, the intracellular bacterial bioluminescence was inactive: 121%.

Consider `Cc1ccc(-c2nc(SCC(=O)NCc3ccco3)c3ccccc3n2)cc1`, for which the intracellular bacterial bioluminescence was inactive: 96.8%.

Regarding `COc1ccc(NC(=O)Nc2nc3cc(C)c(C)cc3s2)cc1`, the intracellular bacterial bioluminescence is inactive: 106%.

As for `O=C(NCc1ccc2c(c1)OCO2)c1ccc(Cl)c(S(=O)(=O)N2CCCC2)c1`, the intracellular bacterial bioluminescence was inactive: 115%.

Turning to `Cc1cc(Nc2ccc(N3CCOCC3)cc2)n2nc(Cc3cccc(F)c3)nc2n1`, the intracellular bacterial bioluminescence was inactive: 106%.

Consider `CC(CCc1ccco1)NC(=O)Nc1cccc2ccccc12` (configuration not stated), for which the intracellular bacterial bioluminescence was inactive: 116%.

Take `O=C(O)CCC(=O)Nc1ccc(Cl)cc1-c1nc2ccccc2[nH]c1=O`: the intracellular bacterial bioluminescence is inactive: 99.8%.

In the case of `COc1cc(/C=C(\C#N)c2nc(-c3ccc([N+](=O)[O-])cc3)cs2)ccc1OC(C)=O`, the intracellular bacterial bioluminescence was inactive: 114%.

In the case of `Cc1ccc(C)c(NC(=O)c2cnc(N(C)C)nc2C)c1`, the intracellular bacterial bioluminescence is inactive: 73.2%.

Take `CC1=CC2=NC(=O)CC(C)(C(=O)NCc3n[nH]c4c3CCCC4)N2C=C1` (configuration not stated): the intracellular bacterial bioluminescence was inactive: 124%.

With `O=C(O)Cc1c(-c2ccccc2)c2cc(Cl)ccc2[nH]c1=O`, the intracellular bacterial bioluminescence is inactive: 105%.

`CCOC(=O)c1sc(NC(=O)CCSc2ccccc2)cc1C`: the intracellular bacterial bioluminescence is inactive: 19.7%.

`O=C(Nc1sc2c(c1-c1nc3ccccc3s1)CCCC2)c1ccc(N2C(=O)CCC2=O)cc1`: the intracellular bacterial bioluminescence is inactive: 104%.

In the case of `O=C(Cn1c2ccccc2n2c(=O)cc(-c3cccc(Cl)c3)nc12)Nc1nccs1`, the intracellular bacterial bioluminescence is active: 155%.

Take `COc1cccc(-n2c(=O)c3sc4ccccc4c3n(CC(=O)NC3CCCCC3)c2=O)c1`: the intracellular bacterial bioluminescence is inactive: 101%.

Regarding `O=C(COc1ncnc2ccccc12)Nc1cccc(C(=O)N2CCOCC2)c1`, the intracellular bacterial bioluminescence is inactive: 59.7%.

On to `COc1ccc(S(=O)(=O)NCC2COC3(CCCCC3)O2)cc1F` (configuration not stated), for which the intracellular bacterial bioluminescence is inactive: 131%.

With `COc1ccc(C(=O)Nc2cc3c4c(c2)CC(=O)N4CCC3)c(OC)c1`, the intracellular bacterial bioluminescence was inactive: 103%.

On to `COc1cccc(-n2c(N)cc(=O)nc2SCC(=O)N2CCN(c3ccccc3)CC2)c1`, for which the intracellular bacterial bioluminescence was inactive: 102%.

Take `O=C(O)CC1S/C(=N/c2ccccc2)N(c2ccccc2)C1=O` (configuration not stated): the intracellular bacterial bioluminescence is inactive: 80.6%.

As for `CCNc1nc(NCC)nc(Sc2ccc([N+](=O)[O-])cc2[N+](=O)[O-])n1`, the intracellular bacterial bioluminescence was inactive: 59.6%.

Consider `Cc1oc2ncnc(N3CCCC(C(=O)N4CCN(C5CCCCC5)CC4)C3)c2c1C` (configuration not stated), for which the intracellular bacterial bioluminescence was active: 157%.

As to `O=C(NCc1ccccc1)N1CCn2cccc2C1c1cccnc1` (configuration not stated), the intracellular bacterial bioluminescence is inactive: 93.6%.

Take `O=C1Nc2ccccc2Oc2ccc(NS(=O)(=O)Cc3ccc(F)cc3)cc21`: the intracellular bacterial bioluminescence was inactive: 106%.

As to `CCc1c(C#N)c(SCC(=O)c2cc3ccccc3oc2=O)nc2c1CCC2`, the intracellular bacterial bioluminescence was inactive: 100%.

As for `Cc1ccc2cc3c(nc2c1)sc1c(SCC(=O)Nc2ccccc2F)ncnc13`, the intracellular bacterial bioluminescence is inactive: 112%.

Consider `Cc1cccc(NC(=O)NC2(C(=O)NCc3ccco3)CCCCC2)c1`, for which the intracellular bacterial bioluminescence was inactive: 128%.

In the case of `O=C(Nc1ncnc2sccc12)c1ccc(C(=O)c2ccccc2)cc1`, the intracellular bacterial bioluminescence was inactive: 13.2%.

Consider `COc1ccc(CCNC(=O)COc2cccc3c2CCN(Cc2cccnc2)C3=O)cc1OC`, for which the intracellular bacterial bioluminescence is inactive: 89.6%.

Consider `O=C(CCC(=O)N1CCN(C(c2ccccc2)c2ccccc2)CC1)Nc1noc2ccccc12`, for which the intracellular bacterial bioluminescence is inactive: 25.1%.

Consider `COc1ccc(-c2cc(C(=O)NC3CCCCC3C)n[nH]2)cc1S(=O)(=O)N(C)C` (configuration not stated), for which the intracellular bacterial bioluminescence was inactive: 47.7%.

For `CC(=O)Nc1ccc(NC2=NC(=O)/C(=C\c3ccc(C)o3)S2)cc1`, the intracellular bacterial bioluminescence is inactive: 7.08%.

Consider `CCN1CCN(c2ccc(C(=O)OC)cc2NC(=O)c2cccnc2)CC1`, for which the intracellular bacterial bioluminescence is inactive: 143%.

Consider `COc1cc(NC(=O)N2CCn3cccc3C2c2ccc(F)c(F)c2)cc(OC)c1OC` (configuration not stated), for which the intracellular bacterial bioluminescence is inactive: 42.3%.

As for `N=c1c(-c2nc3ccccc3s2)cc2c(=O)n3ccccc3nc2n1Cc1ccco1`, the intracellular bacterial bioluminescence is inactive: 119%.

With `Cc1cc2cc(CCNC(=O)C34CC5CC(CC(C5)C3)C4)c(=O)[nH]c2cc1C`, the intracellular bacterial bioluminescence was inactive: 68.5%.

Take `Cc1ccc(CN2C(=O)/C(=C3/C(=O)Nc4ccccc43)SC2=S)cc1`: the intracellular bacterial bioluminescence is inactive: 111%.

On to `Cc1cc(NC(=O)C(=O)NCC(c2ccc3c(c2)CCCN3C)N2CCCC2)c2ccccc2n1` (configuration not stated), for which the intracellular bacterial bioluminescence was inactive: 142%.

As for `COc1ccc(NC(=O)Cn2cc(C(=O)c3ccc(C)c(C)c3)c(=O)c3cc4c(cc32)OCO4)cc1`, the intracellular bacterial bioluminescence was inactive: 77.2%.

Take `O=C(/C=C1\SC(=O)NC1=O)Nc1ncc(Cc2cccc(C(F)(F)F)c2)s1`: the intracellular bacterial bioluminescence was inactive: 111%.

`CCOC(=O)c1ccc(NC(=O)CCN2C(=O)/C(=C/c3ccccc3OC)SC2=S)cc1`: the intracellular bacterial bioluminescence was inactive: 93.7%.

Take `CCOC(=O)c1[nH]c2ccccc2c1NC(=O)c1ccc(N2C(=O)CCC2=O)cc1`: the intracellular bacterial bioluminescence is inactive: 108%.

For the compound `CCOC(=O)c1c(NC(=O)CCSc2nc3sc(C)c(C)c3c(=O)[nH]2)sc(C)c1C`, the intracellular bacterial bioluminescence is inactive: 117%.

`Cc1cc(NS(=O)(=O)c2ccc3onc(C(=O)N4CCCC4)c3c2)ccc1Br`: the intracellular bacterial bioluminescence is inactive: 109%.

Take `NS(=O)(=O)c1ccc(O)c(N2C(=O)c3cccc4c(C(=O)c5ccccc5)ccc(c34)C2=O)c1`: the intracellular bacterial bioluminescence is inactive: 91.5%.

Turning to `O=C1NCCc2c(OCc3cccc(C(F)(F)F)c3)cccc21`, the intracellular bacterial bioluminescence is inactive: 74.3%.

As for `Cc1ccc(-c2noc3ncnc(N4CCC(C(=O)NCc5ccc6c(c5)OCO6)CC4)c23)cc1`, the intracellular bacterial bioluminescence was inactive: 38.9%.

Take `CCS(=O)(=O)c1ccc(C(=O)Nc2nc3c(OC)ccc(C)c3s2)cc1`: the intracellular bacterial bioluminescence was inactive: 117%.

As to `COc1ccc(NC(=O)N(Cc2cc3cc(C)ccc3n3nnnc23)CC2CCCO2)cc1` (configuration not stated), the intracellular bacterial bioluminescence was inactive: 116%.

Consider `CCSc1ccccc1C(=O)Nc1nc2c(s1)COc1ccccc1-2`, for which the intracellular bacterial bioluminescence is inactive: 100%.

On to `Cc1ccc(S(=O)(=O)Nc2ccccc2C(=O)Nc2cccc3c2C(=O)c2ccccc2C3=O)cc1`, for which the intracellular bacterial bioluminescence is inactive: 119%.

For `Cc1cc2nc(C3CCCN3C(=O)c3snnc3C)[nH]c2cc1C` (configuration not stated), the intracellular bacterial bioluminescence is inactive: 111%.

In the case of `CN1CCN(c2ncnc3scc(-c4ccc(Cl)cc4)c23)CC1`, the intracellular bacterial bioluminescence is inactive: 116%.

`COc1ccc(NC(=O)c2c(N)c(C(=O)c3ccc(OC)cc3)n3ccccc23)cc1`: the intracellular bacterial bioluminescence is inactive: 88.2%.

Take `CCC(NC(=O)Cn1c(-c2cccs2)cc2cccnc21)c1c(C)nn(CC)c1C` (configuration not stated): the intracellular bacterial bioluminescence was inactive: 105%.

With `COc1ccc(-c2cc(C(F)(F)F)n3nc(C(=O)N4CCN(c5ccccc5)CC4)nc3n2)cc1`, the intracellular bacterial bioluminescence was inactive: 50.7%.

Regarding `O=S(=O)(/N=C/c1c(O)ccc2ccccc12)c1cccs1`, the intracellular bacterial bioluminescence was inactive: 85.3%.

`c1ccc2c(c1)CCN(c1nc3cc4c(cc3s1)OCCO4)C2`: the intracellular bacterial bioluminescence is inactive: 88.2%.

On to `COC(=O)Cc1c(-c2ccccc2)c2cc(Br)ccc2[nH]c1=O`, for which the intracellular bacterial bioluminescence is inactive: 104%.

`CCn1c2c(c(=O)[nH]c1=O)C(c1cccs1)C1=C(CC(C)(C)CC1=O)N2` (configuration not stated): the intracellular bacterial bioluminescence was inactive: 99%.

As for `Clc1ccc(-c2nnc(C(c3ccccc3)N3CCc4ccccc4C3)o2)cc1` (configuration not stated), the intracellular bacterial bioluminescence was inactive: 93.2%.

For the compound `Cn1c(=O)[nH]c(=O)c2c1nc(N1CCOCC1)n2CCCSc1nc2ccccc2o1`, the intracellular bacterial bioluminescence was inactive: 118%.

In the case of `COCCn1c(SCC(=O)Nc2ccc(C(=O)OC)cc2)nc2cccnc21`, the intracellular bacterial bioluminescence was inactive: 72.7%.

Turning to `CCc1nc(-c2csc(S(=O)(=O)Nc3ccc(Cl)cn3)c2)no1`, the intracellular bacterial bioluminescence was inactive: 132%.

Turning to `CCc1ccc(Nc2nc(C(=O)O)nc3ccccc23)cc1`, the intracellular bacterial bioluminescence is inactive: 117%.

For `CCOc1ccccc1NC(=O)Cn1c(C)c(Cc2ccccc2)c(=O)n2nc(-c3ccccc3)nc12`, the intracellular bacterial bioluminescence was inactive: 85.8%.

Consider `Cc1cc(C)nc(NC(=O)c2ccc3c(c2)nnn3Cc2ccccc2C)n1`, for which the intracellular bacterial bioluminescence is inactive: 71.4%.

For the compound `O=C(NCCCN1CCOCC1)c1cc2n(n1)CCCN(Cc1ccc(F)cc1)C2=O`, the intracellular bacterial bioluminescence is inactive: 116%.

On to `COC(=O)c1ccc(CSc2nc(-c3ccc(F)cc3)nc3c2c(=O)n(C)c(=O)n3C)o1`, for which the intracellular bacterial bioluminescence is inactive: 86.4%.

Consider `COc1ccc(C2c3[nH]c4ccccc4c3CCN2C(=O)c2cccnc2)cc1` (configuration not stated), for which the intracellular bacterial bioluminescence is inactive: 120%.

`CCCC(=O)Nc1nc2c(s1)C(=O)CC(C)(C)C2`: the intracellular bacterial bioluminescence was inactive: 115%.

For `O=C(CSCc1ccccc1)Nc1cc(Cl)ccc1Cl`, the intracellular bacterial bioluminescence was inactive: 65.3%.

`COc1cc(C(=O)NC(=S)Nc2cccc3c2C(=O)NC3=O)cc(OC)c1OC`: the intracellular bacterial bioluminescence was inactive: 106%.

Take `CCc1nc2ccc(NC(=O)c3nc(-c4ccc(F)cc4)oc3C)cc2[nH]1`: the intracellular bacterial bioluminescence was inactive: 82.6%.

With `CCOC(=O)c1sc2nc(NC(=O)C3CCCCC3)sc2c1C`, the intracellular bacterial bioluminescence was inactive: 104%.

With `O=C(Nc1ccccc1)Nc1cccc(N2CCn3c(nc4cc(Cl)ccc43)C2)c1`, the intracellular bacterial bioluminescence was inactive: 23.7%.

Consider `O=C(CSc1ccc([N+](=O)[O-])cc1[N+](=O)[O-])Nc1cccc(C(F)(F)F)c1`, for which the intracellular bacterial bioluminescence is inactive: 22.7%.

Take `COc1cc(Br)cc2c1Oc1nc(-c3ccccc3)nc(SCC(N)=O)c1C2`: the intracellular bacterial bioluminescence was inactive: 89.6%.

Regarding `Cc1sc(NC(=O)CN(Cc2ccc(F)cc2)C(=O)c2ccncc2)c(C(N)=O)c1C`, the intracellular bacterial bioluminescence is inactive: 94.4%.

For `CC(C(=O)N1CCCc2ccccc21)n1cnc2onc(-c3ccc(Cl)cc3)c2c1=O` (configuration not stated), the intracellular bacterial bioluminescence was inactive: 116%.

For the compound `CCN1CC2=C(OC(N)=C(C#N)C2c2ccc(F)cc2)/C(=C/c2ccc(F)cc2)C1` (configuration not stated), the intracellular bacterial bioluminescence was inactive: 107%.

Turning to `O=C(NCCc1c[nH]c2ccccc12)C(=O)c1cn(CC(=O)N2CCCC2)c2ccccc12`, the intracellular bacterial bioluminescence was inactive: 99.2%.

As to `Cc1cc(NC(=O)CN2CC(C)CC(C)C2)nc2c1c(=O)oc1ccccc12` (configuration not stated), the intracellular bacterial bioluminescence is inactive: 85.2%.

`CCOC(=O)c1nn(-c2ccc(F)cc2)c(=O)cc1OCC(=O)NCCc1ccc(OC)c(OC)c1`: the intracellular bacterial bioluminescence is inactive: 108%.
